The results in this text go back to the supplement of paper PMC7877785.

The data set is described as follows: self-splicing fitness, log relative to wild type (ln ratio); higher = more splicing; Tetrahymena group I intron in knt gene, E. coli kanamycin selection, DiMSum; sequences stand for … in CUCUCU…GGAGGGAAAAGUUAUCAGGCAUGCACCUGGUAGCUAGUCUUUAAACCAAUAGAUUGCAUCGGUUUAAAAGGCAAGACCGUCAAAUUGCGGGAAAGGGGUCAACAGCCGUUCAGUACCAAGUCUCAGGGGAAACUUUGAGAUGGCCUUGCAAAGGGUAUGGUAAUAAGCUGACGGACAUGGUCCUAACCACGCAGCCAAGUCCUAAGUCAACAGAUCUUCUGUUGAUAUGGAUGCAGUUCACAGACUAAAUGUCGGUCGGGGAAGAUGUAUUCUUCUCAUAAGAUAUAGUCGGACCUCUCCUUAAUGGGAGCUAGCGGAUGAAGUGAUGCAACACUGGAGCCGCUGGGAACUAAUUUGUAUGCGAAAGUAUAUUGAUUAGUUUUGGAGUACUCGUGGUCG
In outline: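 Pooled colonies went to amplicon sequencing on an Illumina HiSeq 2500 after six replicate transformations. The plates were LB agar with 100 μg/mL carbenicillin, 50 μM IPTG and 0.2% rhamnose, with or without 25 μg/mL kanamycin, incubated overnight at 37°C or 30°C. The E. coli BL21(DE3) library had all eight P1ex-region intron nucleotides randomised, the intron placed in the knt kanamycin-resistance gene on pET-22b(+). DiMSum fitness is the error-weighted combination of replicate fold changes, kanamycin against none, normalised to wild type.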

± gives the uncertainty stated by the source. Many entries were measured with a wide error.

As to CGAGAGCAAUAUUACGCCCU, the “self-splicing fitness (ln)” value is, setting by setting: (30 °C) -4.16 ± 1; (37 °C) -2.07 ± 1.1.
The matching figures for AUCUAGCAAUAUUACGAGGA: -2.83 ± 0.32 and -2.01 ± 0.21.
On to AGAGAGCAAUAUUACGGGUC, for which the “self-splicing fitness (ln)” value (30 °C) was -3.72 ± 0.6.
On the same count and under the same terms, the figure for UUGGAGCAAUAUUACGCGGC is -2.54 ± 0.64; for GUCUAGCAAUAUUACGGUAG it is -4.71 ± 1.
In the case of CGGGAGCAAUAUUACGCCUG, the “self-splicing fitness (ln)” value (37 °C) was -1.63 ± 0.5.
Take UCGAAGCAAUAUUACGUACC: the “self-splicing fitness (ln)” value by setting is: (30 °C) -3.03 ± 0.77; (37 °C) -3.34 ± 0.76.
In the same order, the values of GACGAGCAAUAUUACGCUUC are -1.69 ± 0.93 and -0.78 ± 0.61.
In the same order, the values of AUGGAGCAAUAUUACGAGAC are -2.65 ± 1.1 and -1.8 ± 0.66.
For CGGAAGCAAUAUUACGAUAA, the “self-splicing fitness (ln)” value (30 °C) is -3.42 ± 0.53.
For UACUAGCAAUAUUACGAAAC, for the setting “30 °C”, the “self-splicing fitness (ln)” value is -4.49 ± 1.
Turning to AUGGAGCAAUAUUACGACUC, the “self-splicing fitness (ln)” value is, setting by setting: (30 °C) -3.14 ± 0.61; (37 °C) -1.81 ± 0.52.
UAUUAGCAAUAUUACGGGGU: for the setting “30 °C”, the “self-splicing fitness (ln)” value is -3.37 ± 0.52.
On to CUAGAGCAAUAUUACGUACA, for which the “self-splicing fitness (ln)” value was -2.59 ± 0.36 (30 °C) and -1.64 ± 0.32 (37 °C).
As for GUGAAGCAAUAUUACGGAAC, the “self-splicing fitness (ln)” value was 0.76 ± 0.34 (30 °C) and -2.24 ± 0.57 (37 °C).
Take GGGCAGCAAUAUUACGUCAC: the “self-splicing fitness (ln)” value (30 °C) is -3.64 ± 0.6.
ACGUAGCAAUAUUACGGUGA: the “self-splicing fitness (ln)” value (30 °C) is -2.3 ± 0.2 and the “self-splicing fitness (ln)” value (37 °C) is -0.727 ± 0.15.
As to UAGUAGCAAUAUUACGCAAC, the “self-splicing fitness (ln)” value (37 °C) is -1.14 ± 0.64.
Turning to GUGAAGCAAUAUUACGCGUU, the “self-splicing fitness (ln)” value by setting is: (30 °C) -3.59 ± 0.2; (37 °C) -2.02 ± 0.21.
In the same order, the values of CCCCAGCAAUAUUACGAUCG are -2.85 ± 0.13 and -0.917 ± 0.14.
As to UCUUAGCAAUAUUACGCUAA, under “37 °C”, the “self-splicing fitness (ln)” value is -1.88 ± 0.82.
UUGAAGCAAUAUUACGAGUA: the “self-splicing fitness (ln)” value by setting is: (30 °C) -1.83 ± 0.077; (37 °C) -0.59 ± 0.085.
GAUUAGCAAUAUUACGCCUC: the “self-splicing fitness (ln)” value reads like this: (30 °C) -0.628 ± 0.52; (37 °C) -0.638 ± 0.87.
The matching figures for UGUAAGCAAUAUUACGCUUU: -3.09 ± 0.26 and -2.72 ± 0.27.
In the case of UUGAAGCAAUAUUACGGGCC, the “self-splicing fitness (ln)” value (30 °C) is -3.3 ± 0.64.
In the case of UAAUAGCAAUAUUACGAAUC, the “self-splicing fitness (ln)” value (30 °C) was -4.21 ± 0.31 and the “self-splicing fitness (ln)” value (37 °C) is -2.34 ± 0.39.
The matching figures for ACUUAGCAAUAUUACGUAUC: -3.56 ± 0.22 and -2.37 ± 0.24.
In the same order, the values of GUCGAGCAAUAUUACGACCC are -0.254 ± 0.58 and 0.0441 ± 0.72.
On to UAUAAGCAAUAUUACGACGC, for which the “self-splicing fitness (ln)” value runs as follows: (30 °C) -3.44 ± 0.23; (37 °C) -1.19 ± 0.17.
On to CAAGAGCAAUAUUACGCCGU, for which the “self-splicing fitness (ln)” value (37 °C) is -3.74 ± 1.
Consider CUAUAGCAAUAUUACGAAAU, for which the “self-splicing fitness (ln)” value is -3.17 ± 0.62 (30 °C) and -0.234 ± 1.4 (37 °C).
As for GUAUAGCAAUAUUACGAAUA, the “self-splicing fitness (ln)” value by setting is: (30 °C) -1.55 ± 1.2; (37 °C) -1.08 ± 0.93.
For CCGUAGCAAUAUUACGUUCC, the “self-splicing fitness (ln)” value (37 °C) is -2.03 ± 0.53.
The same measure, in the same setting: the figure for UUCCAGCAAUAUUACGGAGU is -3.39 ± 0.6.
For UUCAAGCAAUAUUACGUUCC, the “self-splicing fitness (ln)” value (30 °C) was -3.06 ± 0.76.
The same measure, in the same setting: in the case of AUAUAGCAAUAUUACGUGGC it was -4.91 ± 0.59.
Regarding CUGGAGCAAUAUUACGCCGG, the “self-splicing fitness (ln)” value is, setting by setting: (30 °C) -2.94 ± 0.58; (37 °C) -1.72 ± 0.57.
With CUAUAGCAAUAUUACGCCUU, the “self-splicing fitness (ln)” value (30 °C) was -3.59 ± 0.62.
Same read-out and setting: the figure for AAUGAGCAAUAUUACGUACC is -4.21 ± 0.59.
For the sequence ACAGAGCAAUAUUACGAUCU, the “self-splicing fitness (ln)” value was -1.68 ± 0.22 (30 °C) and -2.33 ± 0.56 (37 °C).
Take AUGCAGCAAUAUUACGAUAC: for the setting “37 °C”, the “self-splicing fitness (ln)” value is -2.58 ± 0.62.
With UCGGAGCAAUAUUACGGCAG, the “self-splicing fitness (ln)” value was -3.96 ± 1 (30 °C) and -1.72 ± 0.66 (37 °C).
The matching figures for UGCCAGCAAUAUUACGAGGC: -4.02 ± 0.42 and -1.44 ± 0.18.
Turning to ACCGAGCAAUAUUACGUUAG, the “self-splicing fitness (ln)” value is -4.03 ± 0.15 (30 °C) and -2.65 ± 0.15 (37 °C).
Regarding UAUAAGCAAUAUUACGAGGC, where the note is “30 °C”, the “self-splicing fitness (ln)” value was -3.8 ± 0.77.
